{"sequences": {"note": "Protein sequences, listed by entry. Tags and fused reporters are not part of them. Lines headed by an entry give the natural chain unless they say otherwise; changes in a name come on top.", "UniProt Q96BU1": "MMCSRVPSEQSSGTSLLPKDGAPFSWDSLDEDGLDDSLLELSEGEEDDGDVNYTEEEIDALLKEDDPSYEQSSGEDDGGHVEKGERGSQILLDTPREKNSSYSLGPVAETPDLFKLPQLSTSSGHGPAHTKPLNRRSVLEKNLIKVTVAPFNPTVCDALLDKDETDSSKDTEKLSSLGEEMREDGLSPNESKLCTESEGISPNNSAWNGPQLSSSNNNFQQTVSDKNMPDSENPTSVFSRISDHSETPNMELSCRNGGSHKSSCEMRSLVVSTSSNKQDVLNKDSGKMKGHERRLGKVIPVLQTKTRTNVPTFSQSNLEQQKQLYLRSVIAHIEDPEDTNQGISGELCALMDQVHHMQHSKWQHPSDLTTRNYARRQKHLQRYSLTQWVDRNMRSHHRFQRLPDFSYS", "UniProt Q96C00": "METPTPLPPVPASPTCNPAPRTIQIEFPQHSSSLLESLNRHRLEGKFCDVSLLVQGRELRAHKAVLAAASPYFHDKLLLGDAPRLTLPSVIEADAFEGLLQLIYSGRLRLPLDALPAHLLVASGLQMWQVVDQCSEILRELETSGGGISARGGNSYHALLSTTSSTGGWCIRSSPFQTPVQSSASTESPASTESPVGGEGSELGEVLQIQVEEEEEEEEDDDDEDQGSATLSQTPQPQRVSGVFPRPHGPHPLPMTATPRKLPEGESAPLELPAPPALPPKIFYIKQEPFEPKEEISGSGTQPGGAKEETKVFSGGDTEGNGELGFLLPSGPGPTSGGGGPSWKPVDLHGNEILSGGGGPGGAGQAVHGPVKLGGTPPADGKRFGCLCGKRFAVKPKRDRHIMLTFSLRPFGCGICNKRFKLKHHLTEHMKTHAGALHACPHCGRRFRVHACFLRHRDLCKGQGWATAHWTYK", "UniProt Q96GE5": "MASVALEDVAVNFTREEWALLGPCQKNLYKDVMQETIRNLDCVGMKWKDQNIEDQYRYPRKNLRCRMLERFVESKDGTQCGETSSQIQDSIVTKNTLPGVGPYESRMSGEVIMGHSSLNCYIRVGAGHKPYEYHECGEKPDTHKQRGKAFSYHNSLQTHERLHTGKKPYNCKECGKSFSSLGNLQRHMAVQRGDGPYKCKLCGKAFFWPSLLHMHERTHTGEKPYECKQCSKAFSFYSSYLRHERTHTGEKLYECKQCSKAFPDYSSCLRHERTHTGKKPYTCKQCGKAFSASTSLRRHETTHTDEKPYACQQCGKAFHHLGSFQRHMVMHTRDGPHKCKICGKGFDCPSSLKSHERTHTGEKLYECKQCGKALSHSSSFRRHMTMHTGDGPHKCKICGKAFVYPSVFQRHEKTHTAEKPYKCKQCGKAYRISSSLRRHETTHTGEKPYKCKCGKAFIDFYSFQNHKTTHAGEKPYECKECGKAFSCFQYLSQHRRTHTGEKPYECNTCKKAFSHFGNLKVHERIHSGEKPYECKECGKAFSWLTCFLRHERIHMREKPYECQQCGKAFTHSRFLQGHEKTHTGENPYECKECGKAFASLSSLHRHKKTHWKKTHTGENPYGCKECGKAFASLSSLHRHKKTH", "UniProt Q96AP4": "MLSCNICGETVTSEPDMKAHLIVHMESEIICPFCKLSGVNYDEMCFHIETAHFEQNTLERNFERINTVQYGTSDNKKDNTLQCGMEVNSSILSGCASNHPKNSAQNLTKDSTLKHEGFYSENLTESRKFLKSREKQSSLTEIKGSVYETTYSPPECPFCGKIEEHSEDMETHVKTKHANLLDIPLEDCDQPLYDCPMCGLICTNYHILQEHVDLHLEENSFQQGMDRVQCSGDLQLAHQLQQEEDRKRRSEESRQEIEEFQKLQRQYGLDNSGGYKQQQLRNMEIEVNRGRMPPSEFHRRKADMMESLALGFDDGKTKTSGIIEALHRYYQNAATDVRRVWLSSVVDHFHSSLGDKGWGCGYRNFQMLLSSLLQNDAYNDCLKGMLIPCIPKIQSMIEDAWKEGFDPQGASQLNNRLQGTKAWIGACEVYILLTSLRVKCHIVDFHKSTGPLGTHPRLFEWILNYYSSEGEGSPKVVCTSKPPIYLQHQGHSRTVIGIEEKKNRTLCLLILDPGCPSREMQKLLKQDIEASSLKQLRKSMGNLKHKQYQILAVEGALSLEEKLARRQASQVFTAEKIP", "UniProt Q96BZ9": "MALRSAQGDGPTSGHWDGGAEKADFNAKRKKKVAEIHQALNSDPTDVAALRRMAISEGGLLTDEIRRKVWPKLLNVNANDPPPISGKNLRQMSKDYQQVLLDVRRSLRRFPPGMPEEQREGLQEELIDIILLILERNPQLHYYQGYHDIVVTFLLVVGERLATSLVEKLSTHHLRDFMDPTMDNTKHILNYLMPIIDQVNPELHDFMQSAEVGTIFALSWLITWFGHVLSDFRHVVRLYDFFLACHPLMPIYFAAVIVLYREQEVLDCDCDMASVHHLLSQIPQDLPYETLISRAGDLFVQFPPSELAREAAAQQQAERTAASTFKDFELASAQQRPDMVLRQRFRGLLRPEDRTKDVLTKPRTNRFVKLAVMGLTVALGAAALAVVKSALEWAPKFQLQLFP", "UniProt Q92989": "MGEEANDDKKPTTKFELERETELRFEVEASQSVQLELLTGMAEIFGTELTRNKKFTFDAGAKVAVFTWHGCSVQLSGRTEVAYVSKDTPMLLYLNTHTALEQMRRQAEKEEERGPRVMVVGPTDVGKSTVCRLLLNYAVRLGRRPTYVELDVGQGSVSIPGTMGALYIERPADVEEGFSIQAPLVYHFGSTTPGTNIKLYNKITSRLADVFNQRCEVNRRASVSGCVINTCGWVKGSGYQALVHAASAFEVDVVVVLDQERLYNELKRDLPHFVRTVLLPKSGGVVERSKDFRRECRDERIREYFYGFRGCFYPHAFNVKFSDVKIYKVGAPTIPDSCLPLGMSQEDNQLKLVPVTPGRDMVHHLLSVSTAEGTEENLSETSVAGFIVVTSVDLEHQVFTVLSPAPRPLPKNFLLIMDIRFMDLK", "UniProt Q96AD5": "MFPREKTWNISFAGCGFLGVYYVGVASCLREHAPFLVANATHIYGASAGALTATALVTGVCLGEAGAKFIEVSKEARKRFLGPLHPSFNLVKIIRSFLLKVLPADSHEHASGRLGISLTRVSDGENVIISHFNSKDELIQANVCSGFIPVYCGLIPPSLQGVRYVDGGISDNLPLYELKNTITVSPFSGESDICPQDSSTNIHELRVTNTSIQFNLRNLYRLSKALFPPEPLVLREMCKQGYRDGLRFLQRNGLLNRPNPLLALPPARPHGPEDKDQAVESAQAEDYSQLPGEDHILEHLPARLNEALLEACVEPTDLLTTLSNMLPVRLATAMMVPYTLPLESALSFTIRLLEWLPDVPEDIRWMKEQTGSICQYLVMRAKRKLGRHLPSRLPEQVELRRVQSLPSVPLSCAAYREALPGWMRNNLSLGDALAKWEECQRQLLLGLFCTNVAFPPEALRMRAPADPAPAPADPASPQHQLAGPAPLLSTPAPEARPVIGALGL", "UniProt Q92902": "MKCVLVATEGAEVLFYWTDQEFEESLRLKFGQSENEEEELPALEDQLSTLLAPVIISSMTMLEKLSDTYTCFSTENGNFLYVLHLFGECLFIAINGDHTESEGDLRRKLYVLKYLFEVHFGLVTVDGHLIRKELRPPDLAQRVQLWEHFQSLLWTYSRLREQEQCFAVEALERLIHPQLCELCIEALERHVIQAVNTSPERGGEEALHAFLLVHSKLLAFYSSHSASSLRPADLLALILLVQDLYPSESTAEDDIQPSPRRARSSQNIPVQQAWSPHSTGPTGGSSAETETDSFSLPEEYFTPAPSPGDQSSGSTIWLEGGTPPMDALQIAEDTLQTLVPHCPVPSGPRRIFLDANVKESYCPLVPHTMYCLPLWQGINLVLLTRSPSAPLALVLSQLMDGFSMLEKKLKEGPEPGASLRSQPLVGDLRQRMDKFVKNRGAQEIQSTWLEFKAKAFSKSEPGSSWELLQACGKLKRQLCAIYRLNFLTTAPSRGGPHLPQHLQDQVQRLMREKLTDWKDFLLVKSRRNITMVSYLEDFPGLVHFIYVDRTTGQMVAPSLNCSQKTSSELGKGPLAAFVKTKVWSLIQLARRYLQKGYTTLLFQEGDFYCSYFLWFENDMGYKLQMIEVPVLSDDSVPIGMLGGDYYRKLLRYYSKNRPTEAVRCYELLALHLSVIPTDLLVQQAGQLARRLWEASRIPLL", "UniProt Q96EP1": "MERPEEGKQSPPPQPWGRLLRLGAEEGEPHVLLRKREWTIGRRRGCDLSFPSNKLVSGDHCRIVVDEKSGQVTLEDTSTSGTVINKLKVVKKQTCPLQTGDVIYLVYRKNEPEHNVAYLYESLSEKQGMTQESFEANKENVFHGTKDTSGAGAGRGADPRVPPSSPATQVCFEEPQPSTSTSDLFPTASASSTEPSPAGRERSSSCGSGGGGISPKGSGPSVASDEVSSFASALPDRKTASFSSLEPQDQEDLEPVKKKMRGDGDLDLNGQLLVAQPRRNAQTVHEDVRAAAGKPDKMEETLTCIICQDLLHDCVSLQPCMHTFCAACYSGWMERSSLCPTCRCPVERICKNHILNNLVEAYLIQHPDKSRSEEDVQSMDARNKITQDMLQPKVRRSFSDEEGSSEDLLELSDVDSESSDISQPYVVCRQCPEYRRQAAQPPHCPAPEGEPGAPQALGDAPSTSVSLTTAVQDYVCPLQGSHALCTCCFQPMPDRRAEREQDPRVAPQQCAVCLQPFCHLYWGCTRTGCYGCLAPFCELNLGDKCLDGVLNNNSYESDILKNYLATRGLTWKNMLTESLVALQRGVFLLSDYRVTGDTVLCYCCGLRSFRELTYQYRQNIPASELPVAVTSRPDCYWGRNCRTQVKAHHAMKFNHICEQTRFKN", "UniProt Q96BZ8": "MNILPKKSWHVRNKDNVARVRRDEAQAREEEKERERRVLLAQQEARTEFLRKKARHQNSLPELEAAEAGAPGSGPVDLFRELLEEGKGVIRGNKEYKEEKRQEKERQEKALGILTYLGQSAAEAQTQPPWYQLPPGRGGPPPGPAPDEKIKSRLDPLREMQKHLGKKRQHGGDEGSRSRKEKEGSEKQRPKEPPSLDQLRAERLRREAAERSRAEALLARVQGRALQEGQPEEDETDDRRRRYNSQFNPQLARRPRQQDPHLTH"}, "source": "the supplement of paper PMC12819154", "about": "“High-throughput peptide-centric local stability assay extends protein–ligand identification to membrane proteins, tissues and bacteria” (Nature Structural & Molecular Biology, 2025)", "note": "The other results are listed elsewhere or left out. Most values lie at the level of the controls, where differences are scatter.", "data": [{"compound": "CN[C@@H]1C[C@H]2O[C@@](C)([C@@H]1OC)n1c3ccccc3c3c4c(c5c6ccccc6n2c5c31)C(=O)NC4 [staurosporine]", "experiment": "log2 fold change of tryptic peptide abundance, ligand vs vehicle (limited proteolysis) (log2 ratio); higher = more trypsin-susceptible (destabilized)", "details": "ligand concentration: 20 uM; sample: K562 cleared lysate; digestion: 4 min, 22 C (HT-PELSA RT4min, Orbitrap Astral)", "values": [{"target": "S100PBP (peptide sequence: SLVVSTSSNK, peptide start residue: 268) (UniProt Q96BU1)", "log2 fold change": -0.178}, {"target": "ZBTB9 (peptide sequence: EEISGSGTQPGGAKEETK, peptide start residue: 294) (UniProt Q96C00)", "log2 fold change": 0.593}, {"target": "UniProt Q96GE5 (peptide sequence: NTLPGVGPYESR, peptide start residue: 95)", "log2 fold change": 0.0852}, {"target": "ZUP1 (peptide sequence: QYGLDNSGGYK, peptide start residue: 266) (UniProt Q96AP4)", "log2 fold change": -0.249}, {"target": "TBC1D20 (peptide sequence: EAAAQQQAER, peptide start residue: 310) (UniProt Q96BZ9)", "log2 fold change": -0.485}, {"target": "CLP1 (peptide sequence: EYFYGFR, peptide start residue: 303) (UniProt Q92989)", "log2 fold change": -0.189}, {"target": "PNPLA2 (peptide sequence: NNLSLGDALAK, peptide start residue: 425) (UniProt Q96AD5)", "log2 fold change": 0.35}, {"target": "HPS1 (peptide sequence: SQPLVGDLR, peptide start residue: 421) (UniProt Q92902)", "log2 fold change": -0.209}, {"target": "CHFR (peptide sequence: LVSGDHCR, peptide start residue: 55) (UniProt Q96EP1)", "log2 fold change": 0.201}, {"target": "LENG1 (peptide sequence: GGPPPGPAPDEK, peptide start residue: 138) (UniProt Q96BZ8)", "log2 fold change": -0.119}, {"target": "UniProt Q96DE5 (peptide sequence: KALFTYPK, peptide start residue: 33)", "log2 fold change": -0.0661}]}]}
